Experimental findings from PMC6242896 are described below.

Chains of the proteins cited; added tags and fusions are not shown. Residues count along the entry.
UniProt P35222: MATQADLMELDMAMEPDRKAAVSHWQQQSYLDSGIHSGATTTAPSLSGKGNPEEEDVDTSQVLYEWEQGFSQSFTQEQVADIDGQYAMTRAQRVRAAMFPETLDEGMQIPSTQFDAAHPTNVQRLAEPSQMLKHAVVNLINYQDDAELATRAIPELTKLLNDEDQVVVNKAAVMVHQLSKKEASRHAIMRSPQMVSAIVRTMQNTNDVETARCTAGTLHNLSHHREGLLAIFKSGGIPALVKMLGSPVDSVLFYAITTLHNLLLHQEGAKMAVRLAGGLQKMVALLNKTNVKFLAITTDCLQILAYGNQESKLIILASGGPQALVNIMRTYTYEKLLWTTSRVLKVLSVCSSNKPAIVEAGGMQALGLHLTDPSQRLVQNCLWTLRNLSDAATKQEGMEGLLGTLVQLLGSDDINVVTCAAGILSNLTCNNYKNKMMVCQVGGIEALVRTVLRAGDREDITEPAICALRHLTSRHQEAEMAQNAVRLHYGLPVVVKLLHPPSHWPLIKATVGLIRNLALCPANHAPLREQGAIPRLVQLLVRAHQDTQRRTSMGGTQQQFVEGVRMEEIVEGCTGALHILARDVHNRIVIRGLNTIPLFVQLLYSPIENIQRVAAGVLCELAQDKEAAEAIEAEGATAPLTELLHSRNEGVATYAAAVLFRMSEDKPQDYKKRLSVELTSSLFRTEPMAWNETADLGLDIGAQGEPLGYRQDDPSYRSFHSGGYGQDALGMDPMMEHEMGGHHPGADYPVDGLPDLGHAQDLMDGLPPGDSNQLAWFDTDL
UniProt P29317, residues 24-976: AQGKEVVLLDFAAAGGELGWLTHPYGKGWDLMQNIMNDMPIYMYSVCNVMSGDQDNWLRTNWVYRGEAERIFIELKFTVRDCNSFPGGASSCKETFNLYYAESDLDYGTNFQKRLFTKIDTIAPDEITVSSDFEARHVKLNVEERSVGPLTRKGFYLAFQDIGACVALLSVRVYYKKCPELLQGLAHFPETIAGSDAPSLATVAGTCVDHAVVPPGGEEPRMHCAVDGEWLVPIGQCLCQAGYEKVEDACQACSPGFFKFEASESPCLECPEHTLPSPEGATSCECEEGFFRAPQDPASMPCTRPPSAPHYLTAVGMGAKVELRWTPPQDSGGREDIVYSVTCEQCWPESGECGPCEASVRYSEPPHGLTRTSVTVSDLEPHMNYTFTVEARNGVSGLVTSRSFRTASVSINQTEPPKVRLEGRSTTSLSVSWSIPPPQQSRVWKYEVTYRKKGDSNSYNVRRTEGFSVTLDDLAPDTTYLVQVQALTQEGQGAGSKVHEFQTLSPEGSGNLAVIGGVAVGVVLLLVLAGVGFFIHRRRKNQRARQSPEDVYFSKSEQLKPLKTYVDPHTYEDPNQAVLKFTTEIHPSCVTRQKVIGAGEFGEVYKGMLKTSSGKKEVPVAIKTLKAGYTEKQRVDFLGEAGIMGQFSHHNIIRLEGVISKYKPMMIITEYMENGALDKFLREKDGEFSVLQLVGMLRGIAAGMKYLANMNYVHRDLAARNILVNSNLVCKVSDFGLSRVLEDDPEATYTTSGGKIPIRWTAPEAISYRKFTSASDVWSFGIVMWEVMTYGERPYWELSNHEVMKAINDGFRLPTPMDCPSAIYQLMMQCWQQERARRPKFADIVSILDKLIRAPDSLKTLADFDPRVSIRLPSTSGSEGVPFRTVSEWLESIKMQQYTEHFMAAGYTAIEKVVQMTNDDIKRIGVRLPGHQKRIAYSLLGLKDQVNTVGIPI
UniProt O15169: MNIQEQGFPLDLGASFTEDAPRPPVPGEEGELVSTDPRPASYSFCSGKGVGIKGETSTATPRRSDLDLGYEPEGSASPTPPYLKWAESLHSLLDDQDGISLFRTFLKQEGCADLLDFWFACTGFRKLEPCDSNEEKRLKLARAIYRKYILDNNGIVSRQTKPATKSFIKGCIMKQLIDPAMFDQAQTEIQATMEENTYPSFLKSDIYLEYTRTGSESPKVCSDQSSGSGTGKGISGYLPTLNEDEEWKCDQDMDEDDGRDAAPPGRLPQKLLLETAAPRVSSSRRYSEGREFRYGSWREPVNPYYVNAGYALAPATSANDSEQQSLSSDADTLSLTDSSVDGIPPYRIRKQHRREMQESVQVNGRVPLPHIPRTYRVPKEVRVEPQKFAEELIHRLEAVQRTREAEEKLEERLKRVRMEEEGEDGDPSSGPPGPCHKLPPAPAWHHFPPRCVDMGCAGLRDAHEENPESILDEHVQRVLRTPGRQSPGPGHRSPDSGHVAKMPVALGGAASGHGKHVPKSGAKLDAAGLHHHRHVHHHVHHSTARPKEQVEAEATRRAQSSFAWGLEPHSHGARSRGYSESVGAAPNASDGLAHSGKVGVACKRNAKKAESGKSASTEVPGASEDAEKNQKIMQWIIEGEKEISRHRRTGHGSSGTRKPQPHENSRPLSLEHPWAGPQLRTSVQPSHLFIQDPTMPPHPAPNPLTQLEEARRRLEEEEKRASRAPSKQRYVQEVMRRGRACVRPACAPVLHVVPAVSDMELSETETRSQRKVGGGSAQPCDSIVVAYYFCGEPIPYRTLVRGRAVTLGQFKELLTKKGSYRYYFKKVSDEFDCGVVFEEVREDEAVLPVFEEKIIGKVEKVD

One assay concerns the target T1, GST-Wnt1 (UniProt P04628).
T1 sequence: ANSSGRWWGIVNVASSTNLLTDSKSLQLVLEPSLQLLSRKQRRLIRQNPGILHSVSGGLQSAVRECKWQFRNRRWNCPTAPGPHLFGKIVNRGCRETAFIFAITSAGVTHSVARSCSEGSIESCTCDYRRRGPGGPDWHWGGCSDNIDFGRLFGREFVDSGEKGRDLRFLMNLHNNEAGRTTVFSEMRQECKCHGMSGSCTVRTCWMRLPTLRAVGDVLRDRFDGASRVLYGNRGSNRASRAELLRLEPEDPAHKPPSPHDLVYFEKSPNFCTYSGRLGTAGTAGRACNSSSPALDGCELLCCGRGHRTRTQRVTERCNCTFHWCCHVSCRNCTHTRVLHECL
Nature of the assay: pull-down; GST-Wnt1 on glutathione beads incubated with EphA2 overnight at 4 °C, washed with PBS; blot with anti-EphA2; source of EphA2 not told.

Assay [1] has as its target endogenous β-catenin (human (endogenous in AGS)) (UniProt P35222). In words: co-IP; endogenous proteins in AGS and BGC823 lysates; 2 μg antibody overnight at 4 °C, Protein A/G-Sepharose; also after Flag-Dvl2 overexpression, si-Dvl2, Wnt3a stimulation, EphA2 overexpression, EphA2 shRNA or EphrinA1 treatment.
For assay [2], the target named is EPH receptor A2 (EphA2), expressed from pcDNA3.1-EphA2 (UniProt P29317). Nature of the assay: proximity ligation; Duolink PLA; HEK293 cells transfected with pcDNA3.1-EphA2 for 48 h, incubated with Flag-Wnt1 conditioned medium for 3 h, fixed and permeabilised; anti-Flag (mouse) and anti-EphA2 (rabbit).
Assay [3] shares this target. Nature of the assay: co-IP; pcDNA3.1-EphA2 and Flag-Wnt1 co-expressed in HEK293 cells for 48 h; lysate precipitated with anti-EphA2 or anti-Flag.

These are yes or no findings as the source states them, for the method shown. Binding seen in cells or lysates may run through a third protein. Some binding calls cover weakened binding; strength is not graded here. For some of these results: Where a sequence is shown, tags or fusion partners need not be part of it.

With “EphA2 (as used in the GST-Wnt1 pull-down, Fig. 1f) (from UniProt P29317 24-976) (receptor)”, in the assay with GST-Wnt1, the binding entry is recorded as “binds”.
For the molecule “endogenous Axin1 (from UniProt O15169 1-862)”, the binding entry in assay [1] is listed as “binds”.

B1: Flag-Wnt1 (ligand, UniProt P04628 28-370)
chain: ANSSGRWWGIVNVASSTNLLTDSKSLQLVLEPSLQLLSRKQRRLIRQNPGILHSVSGGLQSAVRECKWQFRNRRWNCPTAPGPHLFGKIVNRGCRETAFIFAITSAGVTHSVARSCSEGSIESCTCDYRRRGPGGPDWHWGGCSDNIDFGRLFGREFVDSGEKGRDLRFLMNLHNNEAGRTTVFSEMRQECKCHGMSGSCTVRTCWMRLPTLRAVGDVLRDRFDGASRVLYGNRGSNRASRAELLRLEPEDPAHKPPSPHDLVYFEKSPNFCTYSGRLGTAGTAGRACNSSSPALDGCELLCCGRGHRTRTQRVTERCNCTFHWCCHVSCRNCTHTRVLHECL
For the molecule B1, the binding result in assay [2] and in assay [3] was “binds” throughout.
